Measurements taken from PMC3458822, “Dimerization of DOCK2 Is Essential for DOCK2-Mediated Rac Activation and Lymphocyte Migration” (PLoS ONE, 2012).
Results are given in words; binding and its absence hold for the method and conditions named. In cells and extracts the contact can be indirect. Some binding calls cover weakened binding; strength is not graded here.

The chains behind the UniProt entries cited, without tags or fusion partners.
UniProt Q8C3J5: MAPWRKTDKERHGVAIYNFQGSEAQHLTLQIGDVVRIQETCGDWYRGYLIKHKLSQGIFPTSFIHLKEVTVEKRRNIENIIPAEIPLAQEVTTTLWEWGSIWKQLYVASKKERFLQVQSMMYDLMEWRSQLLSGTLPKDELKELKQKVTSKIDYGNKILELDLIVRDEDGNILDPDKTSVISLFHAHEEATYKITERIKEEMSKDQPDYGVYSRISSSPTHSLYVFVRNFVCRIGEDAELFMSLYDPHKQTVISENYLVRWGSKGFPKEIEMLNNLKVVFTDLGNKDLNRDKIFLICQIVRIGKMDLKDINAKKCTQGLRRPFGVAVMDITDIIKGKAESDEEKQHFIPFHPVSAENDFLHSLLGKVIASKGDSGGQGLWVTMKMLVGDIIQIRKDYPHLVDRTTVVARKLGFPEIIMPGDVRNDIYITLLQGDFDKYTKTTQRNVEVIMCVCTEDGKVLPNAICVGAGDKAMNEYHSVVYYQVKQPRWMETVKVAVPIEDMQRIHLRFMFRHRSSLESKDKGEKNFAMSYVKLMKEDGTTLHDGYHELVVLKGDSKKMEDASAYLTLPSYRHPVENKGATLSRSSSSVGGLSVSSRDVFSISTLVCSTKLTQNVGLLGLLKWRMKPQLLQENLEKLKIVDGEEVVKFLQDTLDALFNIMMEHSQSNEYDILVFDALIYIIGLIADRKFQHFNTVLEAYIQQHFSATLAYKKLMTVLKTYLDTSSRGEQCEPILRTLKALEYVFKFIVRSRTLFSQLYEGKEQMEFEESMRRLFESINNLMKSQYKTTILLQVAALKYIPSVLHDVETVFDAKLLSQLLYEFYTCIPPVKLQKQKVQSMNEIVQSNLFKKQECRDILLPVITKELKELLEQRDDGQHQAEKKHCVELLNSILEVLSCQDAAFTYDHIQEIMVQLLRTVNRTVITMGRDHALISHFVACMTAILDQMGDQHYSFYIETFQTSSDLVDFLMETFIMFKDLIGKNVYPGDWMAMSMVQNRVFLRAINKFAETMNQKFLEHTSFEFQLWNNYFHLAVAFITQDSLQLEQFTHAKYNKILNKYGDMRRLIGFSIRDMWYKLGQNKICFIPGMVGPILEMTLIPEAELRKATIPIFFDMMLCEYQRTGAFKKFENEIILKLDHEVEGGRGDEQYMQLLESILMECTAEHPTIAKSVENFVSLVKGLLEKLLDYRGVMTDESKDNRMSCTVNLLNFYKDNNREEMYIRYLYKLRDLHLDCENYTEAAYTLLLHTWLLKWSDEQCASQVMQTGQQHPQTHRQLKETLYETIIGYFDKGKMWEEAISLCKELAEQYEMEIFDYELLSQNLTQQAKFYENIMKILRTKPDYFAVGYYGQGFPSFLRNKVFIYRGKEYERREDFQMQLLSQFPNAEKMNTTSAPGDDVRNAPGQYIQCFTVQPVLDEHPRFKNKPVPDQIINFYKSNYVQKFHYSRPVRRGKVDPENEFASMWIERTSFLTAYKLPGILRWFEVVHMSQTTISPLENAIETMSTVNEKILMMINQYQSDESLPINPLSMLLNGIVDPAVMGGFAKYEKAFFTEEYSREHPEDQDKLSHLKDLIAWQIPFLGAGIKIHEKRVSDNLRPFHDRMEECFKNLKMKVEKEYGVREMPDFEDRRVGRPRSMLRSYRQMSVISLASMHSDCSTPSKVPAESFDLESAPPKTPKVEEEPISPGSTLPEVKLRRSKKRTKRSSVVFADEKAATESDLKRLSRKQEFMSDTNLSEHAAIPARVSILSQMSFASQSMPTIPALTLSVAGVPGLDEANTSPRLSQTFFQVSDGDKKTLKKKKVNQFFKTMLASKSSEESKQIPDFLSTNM

Target: FLAG-tagged wild-type DOCK2 expressed in HEK-293T cells (murine) (UniProt Q8C3J5)
Assay: co-IP; FLAG- and GFP-tagged DOCK2 co-expressed in HEK-293T cells; extracts immunoprecipitated with anti-FLAG M2 or anti-GFP antibody (reciprocal), immunoblotting

For “FLAG-tagged wild-type DOCK2 expressed in HEK-293T cells (from UniProt Q8C3J5 1-1828)”, which binding is on record?
The binding was “binds”.
